Assay [1] addresses T1, Angiomotin (Amot), endogenous in MS-1 mouse endothelial cells (mouse (endogenous in MS-1)) (UniProt Q8VHG2).
T1 sequence: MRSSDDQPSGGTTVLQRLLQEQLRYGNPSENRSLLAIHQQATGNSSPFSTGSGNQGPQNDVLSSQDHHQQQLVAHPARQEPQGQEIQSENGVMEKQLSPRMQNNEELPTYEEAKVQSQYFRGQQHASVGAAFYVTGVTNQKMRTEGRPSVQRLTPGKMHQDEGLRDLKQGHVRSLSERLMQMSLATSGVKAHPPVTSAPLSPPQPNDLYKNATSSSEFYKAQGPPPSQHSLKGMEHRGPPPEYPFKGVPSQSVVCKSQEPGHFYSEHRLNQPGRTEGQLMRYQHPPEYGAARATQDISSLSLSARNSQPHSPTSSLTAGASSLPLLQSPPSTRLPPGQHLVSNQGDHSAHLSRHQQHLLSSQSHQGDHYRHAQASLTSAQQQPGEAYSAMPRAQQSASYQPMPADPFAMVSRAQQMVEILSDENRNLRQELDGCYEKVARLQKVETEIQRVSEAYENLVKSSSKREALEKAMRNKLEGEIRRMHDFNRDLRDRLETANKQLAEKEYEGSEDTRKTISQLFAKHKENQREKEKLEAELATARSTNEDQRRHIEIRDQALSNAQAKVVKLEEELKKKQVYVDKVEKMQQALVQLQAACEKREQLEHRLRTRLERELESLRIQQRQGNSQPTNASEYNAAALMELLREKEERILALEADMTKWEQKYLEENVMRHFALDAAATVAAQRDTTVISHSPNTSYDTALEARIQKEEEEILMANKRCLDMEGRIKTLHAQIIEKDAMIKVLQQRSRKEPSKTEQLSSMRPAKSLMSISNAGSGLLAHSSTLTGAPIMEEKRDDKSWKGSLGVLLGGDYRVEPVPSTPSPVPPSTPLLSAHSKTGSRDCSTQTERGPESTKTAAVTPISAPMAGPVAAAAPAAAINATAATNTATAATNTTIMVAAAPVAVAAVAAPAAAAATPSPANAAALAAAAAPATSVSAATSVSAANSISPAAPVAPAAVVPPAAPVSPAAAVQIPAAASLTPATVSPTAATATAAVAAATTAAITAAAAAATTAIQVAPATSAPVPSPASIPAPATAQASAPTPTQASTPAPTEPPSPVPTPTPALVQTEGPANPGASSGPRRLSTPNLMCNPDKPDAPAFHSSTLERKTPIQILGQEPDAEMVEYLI
Description: co-IP; MS-1 cell lysate (50 mM Tris-HCl pH 7.6, 150 mM NaCl, 1 mM EDTA, 1% Nonidet P40); immunoprecipitation with antibodies against Amot, AmotL1 and AmotL2, protein G sepharose, 4 °C; western blot.

Chains of the proteins cited; added tags and fusions are not shown.
UniProt Q8K371: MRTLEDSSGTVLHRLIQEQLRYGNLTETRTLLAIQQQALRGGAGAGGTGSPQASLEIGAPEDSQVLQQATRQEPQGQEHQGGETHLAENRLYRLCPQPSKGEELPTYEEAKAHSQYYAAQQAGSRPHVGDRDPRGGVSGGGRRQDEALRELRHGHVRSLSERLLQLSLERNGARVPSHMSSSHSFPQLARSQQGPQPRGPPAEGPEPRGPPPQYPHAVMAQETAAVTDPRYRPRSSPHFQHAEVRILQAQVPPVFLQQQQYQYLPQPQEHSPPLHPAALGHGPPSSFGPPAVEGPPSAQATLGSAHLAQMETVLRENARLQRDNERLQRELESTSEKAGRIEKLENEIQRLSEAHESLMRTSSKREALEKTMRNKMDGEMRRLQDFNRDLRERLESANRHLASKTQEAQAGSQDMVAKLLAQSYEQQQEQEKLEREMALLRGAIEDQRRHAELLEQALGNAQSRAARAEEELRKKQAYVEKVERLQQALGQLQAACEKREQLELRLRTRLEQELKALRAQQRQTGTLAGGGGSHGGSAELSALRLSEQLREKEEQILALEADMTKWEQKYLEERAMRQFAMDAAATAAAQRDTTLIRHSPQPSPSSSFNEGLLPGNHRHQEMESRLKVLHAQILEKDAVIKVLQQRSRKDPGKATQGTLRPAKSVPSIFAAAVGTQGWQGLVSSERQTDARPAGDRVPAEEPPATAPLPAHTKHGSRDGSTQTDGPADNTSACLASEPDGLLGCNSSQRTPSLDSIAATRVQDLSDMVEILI

Assay [2] addresses AmotL2, endogenous in MS-1 mouse endothelial cells (mouse (endogenous in MS-1)) (UniProt Q8K371). Described as above.

Results are given in words; binding and its absence hold for the method and conditions named. In cells and extracts the contact can be indirect. Some binding calls cover weakened binding; strength is not graded here.

B1: VE-cadherin, endogenous in MS-1 mouse endothelial cells (protein, UniProt P55284 46-784)
chain: DWIWNQMHIDEEKNESLPHYVGKIKSNVNRQNAKYVLQGEFAGKIFGVDANTGNVLAYERLDREKVSEYFLTALIVDKNTNKNLEQPSSFTVKVHDINDNWPVFSHQVFNASVPEMSAIGTSVIRVTAVDADDPTVAGHATVLYQIVKGNEYFSIDNSGLIFTKIKNLDREKQAEYKIVVETQDALGLRGESGTATVMIRLEDINDNFPVFTQSTYTFSVPEDIRVGKPLGFLTVVDPDEPQNRMTKYSIMQGEYRDTFTIETDPKRNEGIIKPTKSLDYEVIQQYTFYIEATDPTIRYEYLSSTSGKNKAMVTINVLDVDEPPVFQRHFYHFKLPENQKKPLIGTVVAKDPDKAQRSIGYSIRKTSDRGQFFRITKQGNIYNEKELDRETYAWYNLTVEANELDSRGNPVGKESIVQVYIEVLDENDNPPEFAQPYEPKVCENAAQGKLVVQISATDKDVVPVNPKFKFALKNEDSNFTLINNHDNTANITVKYGQFNREHAKFHYLPVLISDNGVPSLTGTSTLTVGVCKCNEQGEFTFCEEMAAQAGVSIQALVAIFLCILTITVITLLIILRRRIRKQAHAHSKSALEIHEQLVTYDEEGGGEMDTTSYDVSVLNSVRGGSTKPLRSTMDARPAVYTQVQKPPRLAPGLHGGPREMATMIDVKKEEADNDGGGPPYDTLHIYGYEGAESIAESLSSLSTNSSDSDIDYDFLNDWGPRFKMLAELYGSDPQEELII
B1: the binding result in assay [1] was “binds weakly”; in assay [2], “binds”.
